Measurements from “University of Dundee, Small-Polar-MMV Screening Library” (2021), ChEMBL document CHEMBL3988442.

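Viability assay of Plasmodium falciparum sporozoites; the read-out is not stated. The concentration is filed as 10 mM, unlikely as a test dose, so the dose is not known. Direction is inferred from retests: higher values go with lower viability. Strong results were mostly tested again. Size under these conditions: about 34,000 compounds, about 280 of them at 50% or above in at least one test.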

The filed quantity is “Percent Effect” (%). How 0% and 100% were set is not recorded. Most values in the screen are low, and negative values occur. Compounds were drawn at random from those tested, without regard to their results. Two or more numbers in one place are separate tests of the same structure; such repeats can differ widely.

* COc1ccc(-c2cc(C3CCCCCN3S(=O)(=O)N(C)C)on2)cc1 (centres undefined) : -6.043%
* CCOc1ccccc1C(=O)N(C)C(C)c1ccc(S(C)(=O)=O)cc1 (centres undefined) : 7.544%
* Cc1ccc(CN(C(=O)c2cccc(NC(N)=O)c2)C2CC2)o1 : 4.414% and -10.03%
* Cc1ccc(-c2nc(CN3CCOC(Cn4cccn4)C3)cs2)o1 (centres undefined) : 3.882%
* CC(C)(C)c1nnc(CN2CCCC(Cn3cncn3)C2)o1 (centres undefined) : 4.831%
* CS(=O)(=O)CCNC(=O)C1(c2cccc(Cl)c2)CCCCC1 : -5.823%
* [H][C@@]12CN(Cc3cccc(OC)c3)CC[C@]1([H])N(C(C)=O)C[C@H]2c1ccsc1 : 8.721%
* COc1cccc(C2=CCN(CCN3CCCC3=O)CC2)c1 : -1.665%
* CCN(CC)C(=O)Cn1ccc2cc(NC(=O)C3CCCCC3)ccc21 : -7.382%
* Cc1cnc(N2CCc3c(CN(C)Cc4ccco4)cncc3C2)nc1 : 5.396%
* CN(C)Cc1cc(=O)n2c(n1)CN(S(=O)(=O)C1CC1)CCC2.O=C(O)C(F)(F)F : 4.366%
* Cc1nc(CN2CCN(C)C(=O)C23CCN(C(C)C)CC3)cs1.O=C(O)C(F)(F)F : 4.88%
* COCC1CC2(CCN(C(=O)c3cccc(C)c3)CC2)CO1 (centres undefined) : 6.816%
* CCc1cc(C(=O)N2CCCC2c2nc(C)c(F)c(O)n2)on1 (centres undefined) : 1.413%
* CN(C)C(=O)C1CCN(C2CCN(CC3CCC3)CC2)CC1.O=C(O)C(F)(F)F.O=C(O)C(F)(F)F : -0.9418%
* COCCC1COC2(CCN(C(=O)c3cccn3C)CC2)C1 (centres undefined) : -0.4296%
* COc1ccc(NC(=O)N2CCCC2c2ccco2)cc1OC (centres undefined) : 0.5587%
* CN(C)CC(=O)N1CCC2(CC1)COCCN(Cc1ccncc1)C2 : -11.37%
* CN(CC1(C)COC1)C(=O)c1cc(-c2ccn(C)n2)nc2ccccc12 : 3.691%
* Cc1c[nH]cc1C(=O)N1CCN(Cc2nc(C(C)C)no2)CC1 : 1.253%
* O=C(CCc1ccccc1)Nc1ncccc1OC(F)F : -13.44%
* CCN(Cc1cscn1)CC1(C)Cc2c(N)nc(N)nc2O1 (centres undefined) : 4.82%
* Cc1cc(CN2CCN(CC(O)c3ccccc3)CC2)no1 (centres undefined) : 1.234%
* CN(C)C(=O)CC1CC2(CCN(CC3CC3)CC2)c2cc(F)ccc21.O=C(O)C(F)(F)F (centres undefined) : 8.229%
* Cc1nc(C2CCCN2CC(=O)Nc2cc(C(C)(C)C)nn2C)no1 (centres undefined) : 1.643%
* O=C(O)C(F)(F)F.[H][C@@]12OCCN(C(=O)c3cc(C)[nH]c3C)[C@@]1([H])CC[C@H]2OCCN(C)C : 1.667%
* CN1CCc2c(C#N)c(NCCCN3CCOCC3)n3cnnc3c2C1.Cl.Cl : -0.7892%
* CC(C)(C(=O)NCCCc1nc2ccccc2[nH]1)n1cc(Cl)cn1 : 13.28%
* CC(C)n1c(C2CCCN(CC(=O)NC(N)=O)C2)nc2ccccc21 (centres undefined) : -7.456%
* Cc1cc(CN(C)C(=O)c2ccc(C(F)(F)F)nc2)no1 : -16.18%
* Cc1c(CN2CCCC(c3[nH]ncc3S(C)(=O)=O)C2)cnn1C (centres undefined) : -2.591%

For reference, 4 entries once more:

structure	percent effect
Cc1ccc(-c2nc(CN3CCOC(Cn4cccn4)C3)cs2)o1 (centres undefined)	3.882
Cc1c[nH]cc1C(=O)N1CCN(Cc2nc(C(C)C)no2)CC1	1.253
CCN(Cc1cscn1)CC1(C)Cc2c(N)nc(N)nc2O1 (centres undefined)	4.82
Cc1nc(CN2CCN(C)C(=O)C23CCN(C(C)C)CC3)cs1.O=C(O)C(F)(F)F	4.88